From patent US9090609B2, “Benzyl-substituted carbamates and use thereof” (BAYER INTELLECTUAL PROPERTY GMBH, priority 2010, dated 2015)
At least one structure is not confirmed: it was looked up by name or label, or the drawing left a doubt.

Target: T1, recombinant guanylate cyclase reporter cell line (Rattus norvegicus, UniProt P19686+P20595)
T1 construct: expressed in transfected cells; host or cells: recombinant reporter cell line
T1 sequence (P20595 1-619): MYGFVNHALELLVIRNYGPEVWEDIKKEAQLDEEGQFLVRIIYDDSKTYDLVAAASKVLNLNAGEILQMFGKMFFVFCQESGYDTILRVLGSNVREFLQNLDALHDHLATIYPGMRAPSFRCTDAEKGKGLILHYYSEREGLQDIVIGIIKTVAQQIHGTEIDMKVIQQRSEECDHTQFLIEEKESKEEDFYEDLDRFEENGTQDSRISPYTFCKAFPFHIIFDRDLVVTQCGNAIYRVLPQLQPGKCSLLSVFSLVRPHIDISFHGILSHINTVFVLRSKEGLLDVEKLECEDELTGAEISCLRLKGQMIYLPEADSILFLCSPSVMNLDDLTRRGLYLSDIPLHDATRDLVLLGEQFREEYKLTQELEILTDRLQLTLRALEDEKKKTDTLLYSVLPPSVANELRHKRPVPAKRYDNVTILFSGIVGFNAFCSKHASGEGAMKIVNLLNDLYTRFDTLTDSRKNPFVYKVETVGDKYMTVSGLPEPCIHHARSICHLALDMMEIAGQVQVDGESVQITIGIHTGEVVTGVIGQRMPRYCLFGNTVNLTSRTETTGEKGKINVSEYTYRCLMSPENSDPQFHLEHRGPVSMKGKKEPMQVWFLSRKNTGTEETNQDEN
T1 sequence (P19686 1-690): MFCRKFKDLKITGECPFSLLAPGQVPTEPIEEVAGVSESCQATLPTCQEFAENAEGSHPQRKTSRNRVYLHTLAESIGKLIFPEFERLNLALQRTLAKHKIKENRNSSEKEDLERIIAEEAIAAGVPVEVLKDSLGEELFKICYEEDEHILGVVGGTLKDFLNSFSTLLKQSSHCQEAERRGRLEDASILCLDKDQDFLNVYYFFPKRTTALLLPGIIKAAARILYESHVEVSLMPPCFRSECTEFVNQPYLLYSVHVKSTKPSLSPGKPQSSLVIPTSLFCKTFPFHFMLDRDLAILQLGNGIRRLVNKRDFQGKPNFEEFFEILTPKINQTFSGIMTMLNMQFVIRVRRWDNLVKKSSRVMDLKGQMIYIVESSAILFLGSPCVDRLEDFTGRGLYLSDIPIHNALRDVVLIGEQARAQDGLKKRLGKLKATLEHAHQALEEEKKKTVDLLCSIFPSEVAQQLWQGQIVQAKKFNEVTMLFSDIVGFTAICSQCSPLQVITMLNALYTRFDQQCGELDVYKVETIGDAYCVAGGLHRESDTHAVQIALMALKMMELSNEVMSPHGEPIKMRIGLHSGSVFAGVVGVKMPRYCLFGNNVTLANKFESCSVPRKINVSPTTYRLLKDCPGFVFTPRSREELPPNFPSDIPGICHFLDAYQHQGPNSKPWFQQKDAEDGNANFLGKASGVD
Test: Effect on a recombinant guanylate cyclase reporter cell line
Format: cell-based
Protocol: B-2. Effect on a Recombinant Guanylate Cyclase Reporter Cell Line
The cellular activity of the compounds according to the invention is determined using a recombinant guanylate cyclase reporter cell line, as described in F. Wunder et al., Anal. Biochem. 339, 104-112 (2005).

## COC(=O)N(Cc1ccccc1)c1c(N)nc(-n2nc(Cc3ccccc3F)c3ncc(F)cc32)nc1N [Example 8, Methyl benzyl{4,6-diamino-2-[6-fluoro-3-(2-fluorobenzyl)-1H-pyrazolo[4,3-b]pyridin-1-yl]pyrimidin-5-yl}carbamate]
  MEC (minimum effective concentration): 0.1 µM
